Test results taken from US6649637B2, “Inhibition of intracellular replication by pyridinylimidazoles” (priority 2001, dated 2003).

Legend:
[1] = system: T. gondii RH strain tachyzoites; test: [3H]methyluracil incorporation: intracellular tachyzoite replication in human fibroblasts, RH strain; assay type: cell-based; conditions: Toxoplasma gondii, Fibroblast, read-out: IC50 for inhibition of RH strain replication
[2] = system: T. gondii Me49 strain tachyzoites; test: [3H]methyluracil incorporation: intracellular tachyzoite replication in human fibroblasts, Me49 strain; assay type: cell-based; conditions: Toxoplasma gondii, Fibroblast, read-out: IC50 for inhibition of Me49 strain replication
[3] = system: SB203580-resistant Me49 polyclonal population

**Q.** With `C[S+]([O-])c1ccc(-c2nc(-c3ccc(F)cc3)c(-c3ccncc3)[nH]2)cc1` (stereo not drawn) [SB203580, 4(4-fluorophenyl)-2-(4-methylsulfinylphenyl)-5(4-pyridyl)1H-imidazole] as the molecule, how does the IC50 [1] read?
**A.** The IC50 was roughly 6 µM.

**Q.** And the IC50 [2]?
**A.** The IC50 was roughly 0.5 µM.

**Q.** What about the “IC50 of resistant Me49 population higher than that for parental tachyzoites” value [3] of the same molecule?
**A.** The value was “approximately 11 fold”.
